# PubChem BioAssay AID2685 (National Center for Advancing Translational Sciences (NCATS), 2010)
# The list shows a part of the results. The main result of the screen is listed elsewhere. These columns were measured beside it and carry no call. Compounds called inactive in the main read-out are mostly missing here. Potencies come from curve fits of mixed quality, noted in brackets.
# Test: qHTS Assay for Lipid Storage Modulators in Drosophila S3 Cells;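 for cell number change: cells counted by Cell Tracker Red CMTPX staining in the red channel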
# Details: BODIPY lipid droplet fluorescence, 18-24 h; for cell number change: measured here: cell count max response, cells fed with added oleic acid
# Procedure, shortened: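 Drosophila S3 cells got compounds at several concentrations plus oleic acid (400 uM solution). Laser-scanning cytometry with 488 nm excitation read lipid droplets at 500-530 nm and cells at 575-640 nm. Percent activity was relative to 20 uM Triacsin C.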
# [1] = measured here: lipid fluorescence (Fed channel) AC50, cells fed with added oleic acid
# [2] = measured here: cell number channel AC50, cells fed with added oleic acid
structure (smiles),measurement,setting,value
O=C(/C=C/c1ccccc1)NC1CC2CCCC(C1)N2Cc1ccccc1 (stereo not drawn),cell number change,,1.27%
same,AC50,[1],"0.0058 µM [rising, full curve, poor fit]"
O=C(NCc1cccnc1)Nc1cccc(NC(=O)NCc2cccnc2)c1F,cell number change,,34%
same,AC50,[2],"32.6 µM [rising, single point]"
same,AC50,[1],"29.1 µM [rising, single point]"
COc1cc(NS(=O)(=O)c2ccc(NC(=O)COc3cccc(C)c3)cc2)nc(OC)n1,cell number change,,10.3%
same,AC50,[2],"0.146 µM [falling, full curve, poor fit]"
O=C(COC(=O)CNC(=O)c1ccccc1F)Nc1ncc(Cl)cc1Cl,cell number change,,4.81%
same,AC50,[1],"0.731 µM [rising, single point]"
COc1cc(C(=O)NCc2nnc(SCC(=O)Nc3cccc(C)c3)o2)cc(OC)c1OC,cell number change,,19.6%
COC(=O)NNS(=O)(=O)c1ccc(C)cc1,cell number change,,30.2%
same,AC50,[2],"4.11 µM [rising, full curve]"
same,AC50,[1],"0.259 µM [rising, full curve, poor fit]"
O=C(Nc1ccccc1N1CCOCC1)c1cc(Br)c(Br)s1,cell number change,,1.83%
O=C(N/N=C/c1ccncc1)c1cc(C2CC2)nc2ccccc12,cell number change,,22.7%
Cn1ncc2c(Nc3ccc(Br)cc3)nc(Nc3ccc(Br)cc3)nc21,cell number change,,-55.7%
same,AC50,[2],"23.1 µM [falling, single point]"
same,AC50,[1],"18.4 µM [falling, single point]"
O=C(N/C(=C\c1cccnc1)C(=O)N1CCCCC1)c1cccc(Br)c1,AC50,[1],"0.231 µM [falling, partial curve, poor fit]"
O=C(CN1CCSCC1)N/N=C/c1ccc(F)cc1,cell number change,,-72.5%
same,AC50,[2],"29.1 µM [falling, single point]"
CC[N+](C)(CC)CCC[n+]1c(-c2ccccc2)c2cc(N)ccc2c2ccc(N)cc21,cell number change,,13.1%
O=C(NC1CCCCC1)c1ccc(-c2ccc(Cl)cc2)o1,AC50,[2],"2.31 µM [rising, partial curve]"
CN1CCN(C(=S)Nc2cccc(S(=O)(=O)N(C)C)c2)CC1,cell number change,,21.7%
same,AC50,[1],"0.0058 µM [rising, full curve, poor fit]"
COc1cc(CNCc2ccccn2)ccc1OCc1ccccc1Cl,cell number change,,33.3%
same,AC50,[2],"29.1 µM [rising, single point]"
O=C(NC1=NCCS1)c1ccc(N2CCCC2=O)cc1,cell number change,,-44.9%
same,AC50,[2],"0.82 µM [falling, full curve]"
CCC(=O)Nc1ccc(C(=O)CSc2nc3ccccc3[nH]2)cc1,cell number change,,-26.2%
same,AC50,[2],"0.206 µM [falling, full curve]"
CCOC(=O)C(=O)Nc1cc(Cl)ccc1C,cell number change,,-50%
same,AC50,[2],"29.1 µM [falling, single point]"
CC(NC(=O)CNC(=O)c1ccco1)c1ccc(S(N)(=O)=O)cc1 (stereo not drawn),cell number change,,-21.9%
CCOC(=O)c1c(S(=O)(=O)NC2CCN(C(=O)OCC)CC2)c(C)n(C)c1C,cell number change,,10.6%
same,AC50,[1],"10.3 µM [rising, partial curve, poor fit]"
Cc1cc(C(F)(F)F)nn1C(=O)c1cccnc1Cl,cell number change,,-7.05%
same,AC50,[1],"16.4 µM [falling, partial curve]"
CCOc1ccc(-c2c(C(=O)N/N=C(\C)c3ccncc3)nnn2-c2nonc2N)cc1,cell number change,,2.99%
Nc1nc(SCc2ccc3c(c2)OCO3)n[nH]1,cell number change,,68.9%
same,AC50,[2],"23.1 µM [rising, partial curve]"
same,AC50,[1],"0.326 µM [rising, full curve]"
C=CCOc1cccc(C2c3c(oc4ccc(F)cc4c3=O)C(=O)N2CCCN2CCOCC2)c1 (stereo not drawn),cell number change,,-1.04%
same,AC50,[1],"0.13 µM [falling, full curve, poor fit]"
O=C1CN(C(=O)OCc2ccccc2)c2ccccc2N1,cell number change,,51%
same,AC50,[2],"25.9 µM [rising, single point]"
O=C(NCCc1nc2ccccc2[nH]1)c1cccc(Br)c1,cell number change,,-31.5%
same,AC50,[2],"11.2 µM [falling, partial curve]"
same,AC50,[1],"12.6 µM [falling, single point]"
CCN(CC(=O)Nc1ccccc1C(F)(F)F)C(=O)COc1cccc2c1OC(C)(C)C2,cell number change,,10.5%
Nc1c(C(=O)OCC(=O)Nc2ccc(Cl)cc2[N+](=O)[O-])[nH]c(=O)[nH]c1=O,cell number change,,15.5%
same,AC50,[1],"32.6 µM [rising, single point]"
CN(C)/N=C/c1ccc(/C=N/NC(N)=S)o1,cell number change,,-52%
same,AC50,[2],"32.6 µM [falling, partial curve, poor fit]"
COCCn1c(SCC(=O)c2ccc(Cl)cc2)nnc1C(C)C,cell number change,,-13.6%
same,AC50,[2],"0.103 µM [falling, full curve, poor fit]"
same,AC50,[1],"6.51 µM [falling, single point]"
CCN(CC)S(=O)(=O)c1ccc2oc(C(=O)NCCN3CCOCC3)c(C)c2c1,cell number change,,10%
same,AC50,[1],"1.03 µM [rising, single point]"
O=C(Nc1cccc(NC(=O)c2ccco2)c1)c1ccc2c(c1)OCO2,cell number change,,-6.07%
same,AC50,[1],"0.58 µM [falling, single point]"
CC1CC(C)CN(C(=O)c2cc3c(=O)n4ccccc4nc3s2)C1 (stereo not drawn),cell number change,,-31.7%
same,AC50,[2],"14.6 µM [falling, partial curve, poor fit]"
Cc1nn(C)c(C)c1Nc1ccc(N2C(=O)C3CC=CCC3C2=O)cc1[N+](=O)[O-] (stereo not drawn),cell number change,,7.55%
COc1ccc(S(=O)(=O)NC(CC(C)C)C(=O)NC(C)c2cccs2)cc1 (stereo not drawn),cell number change,,14.6%
same,AC50,[1],"16.4 µM [falling, single point]"
CC(C)OC1(c2ccccc2)OC(=O)c2ccccc21 (stereo not drawn),cell number change,,4.62%
same,AC50,[1],"11.6 µM [rising, single point]"
Cc1ccc(S(=O)(=O)NCCC(=O)NCCCSc2ccccc2)cc1,AC50,[1],"9.2 µM [falling, partial curve]"
Cc1ccc(-c2nc(=S)c3c(n2Cc2ccco2)CC(C)(C)OC3)cc1,cell number change,,-16.7%
same,AC50,[1],"2.06 µM [falling, partial curve]"
Cc1cc(/C=C2\NC(=O)NC2=O)c(C)n1-c1cccnc1,cell number change,,28.1%
same,AC50,[2],"0.517 µM [rising, full curve, poor fit]"
same,AC50,[1],"5.8 µM [rising, single point]"
CSc1nsc(SCC(=O)Nc2nc3ccccc3s2)n1,cell number change,,-43%
same,AC50,[2],"11.6 µM [falling, partial curve, poor fit]"
CC(=O)c1ccc(N2CCN(C(=S)Nc3cccc(F)c3)CC2)cc1,cell number change,,-10.7%
CC(OC(=O)c1cccnc1Cl)C(=O)Nc1ccc2c(c1)OCCO2 (stereo not drawn),AC50,[1],"0.0146 µM [rising, full curve, poor fit]"
CCn1c(C)c(C)c2cc(C(=O)N3CCc4ccccc4C3)ccc21,cell number change,,32.7%
same,AC50,[2],"5.8 µM [rising, partial curve]"
Cc1ccc(CNC(=O)c2c(-c3ccccc3Cl)noc2C)cc1,cell number change,,7.32%
same,AC50,[1],"29.1 µM [falling, single point]"
CCOc1ccc(N(CC(=O)NC(C)CC)S(C)(=O)=O)cc1 (stereo not drawn),cell number change,,-56.1%
same,AC50,[2],"20.6 µM [falling, single point]"
same,AC50,[1],"29.1 µM [falling, single point]"
CCOc1ccc(C)cc1S(=O)(=O)n1ccnc1,AC50,[2],"0.517 µM [rising, full curve]"
same,AC50,[1],"1.84 µM [rising, partial curve]"
O=C(NCc1ccc(F)cc1)C1CCCN(C(=O)NCc2ccccc2)C1 (stereo not drawn),cell number change,,23.9%
same,AC50,[1],"29.1 µM [rising, single point]"
CCn1c(Cc2ccc(OC)cc2)nnc1SCC(=O)Nc1cccc(C(=O)OC)c1,cell number change,,-7.98%
same,AC50,[2],"1.64 µM [falling, partial curve]"
same,AC50,[1],"1.84 µM [falling, partial curve]"
CCC(C)NC(=O)CCS(=O)(=O)c1ccc2c(c1)n(C)c(=O)c(=O)n2C (stereo not drawn),cell number change,,-34.5%
same,AC50,[2],"20.6 µM [falling, single point]"
same,AC50,[1],"20.6 µM [falling, single point]"
O=C(Nc1cccc(Cl)c1)c1nc[nH]c1C(=O)N1CCN(c2ccccc2)CC1,cell number change,,-38.1%
same,AC50,[2],"25.9 µM [falling, single point]"
O=C(/C(=C(\[O-])c1ccccc1)[n+]1ccc2ccccc2c1)c1ccc(Cl)cc1,cell number change,,23.2%
same,AC50,[2],"0.00517 µM [rising, full curve, poor fit]"
same,AC50,[1],"2.59 µM [rising, full curve]"
C/C(=N\NC(=O)c1ccc(Cl)cc1)c1cccnc1,cell number change,,6.49%
same,AC50,[1],"20.6 µM [rising, single point]"
CN1C(=O)N2CN(C3CCCCC3)CN3C(=O)N(C)C1C23 (stereo not drawn),cell number change,,-16.9%
same,AC50,[1],"5.8 µM [falling, full curve]"
C=CCOc1cccc(C(=O)Nc2ncn[nH]2)c1,cell number change,,-10.3%
CC1CCN(C2=C(NS(=O)(=O)c3ccccc3)C(=O)c3ccccc3C2=O)CC1,cell number change,,-59%
same,AC50,[2],"3.66 µM [falling, full curve]"
same,AC50,[1],"1.84 µM [falling, full curve]"
Cc1ccc2cc(CN(Cc3ccco3)S(=O)(=O)c3c(C)ccc4nsnc34)c(=O)[nH]c2c1,cell number change,,18.4%
same,AC50,[2],"0.366 µM [rising, full curve, poor fit]"
Nc1nonc1-n1nnc(C(=O)c2ccccc2)c1-c1ccccc1,cell number change,,90.7%
same,AC50,[1],"20.6 µM [rising, single point]"
O=S(=O)(c1ccc(OCc2nc3ccccc3s2)c(Cl)c1)N1CCOCC1,AC50,[1],"6.51 µM [rising, single point]"
CCc1ccc(/C=N\NC(=O)c2ccc(Br)o2)s1,cell number change,,9.3%
same,AC50,[1],"0.651 µM [rising, partial curve]"
Cc1ccc(C(=O)C2=C(O)C(=O)N(Cc3cccnc3)C2c2cccc([N+](=O)[O-])c2)o1 (stereo not drawn),cell number change,,25.6%
same,AC50,[2],"1.46 µM [rising, full curve, poor fit]"
same,AC50,[1],"23.1 µM [rising, single point]"

# Exported with tabs: entries from further up.
structure (smiles)	measurement	setting	value
COC(=O)NNS(=O)(=O)c1ccc(C)cc1	cell number change		30.2%
same	AC50	[2]	4.11 µM [rising, full curve]
same	AC50	[1]	0.259 µM [rising, full curve, poor fit]
O=C(Nc1ccccc1N1CCOCC1)c1cc(Br)c(Br)s1	cell number change		1.83%
O=C(N/N=C/c1ccncc1)c1cc(C2CC2)nc2ccccc12	cell number change		22.7%
Cn1ncc2c(Nc3ccc(Br)cc3)nc(Nc3ccc(Br)cc3)nc21	cell number change		-55.7%
same	AC50	[2]	23.1 µM [falling, single point]
same	AC50	[1]	18.4 µM [falling, single point]
O=C(N/C(=C\c1cccnc1)C(=O)N1CCCCC1)c1cccc(Br)c1	AC50	[1]	0.231 µM [falling, partial curve, poor fit]
O=C(CN1CCSCC1)N/N=C/c1ccc(F)cc1	cell number change		-72.5%
same	AC50	[2]	29.1 µM [falling, single point]
CC[N+](C)(CC)CCC[n+]1c(-c2ccccc2)c2cc(N)ccc2c2ccc(N)cc21	cell number change		13.1%
O=C(NC1CCCCC1)c1ccc(-c2ccc(Cl)cc2)o1	AC50	[2]	2.31 µM [rising, partial curve]
CN1CCN(C(=S)Nc2cccc(S(=O)(=O)N(C)C)c2)CC1	cell number change		21.7%
same	AC50	[1]	0.0058 µM [rising, full curve, poor fit]
COc1cc(CNCc2ccccn2)ccc1OCc1ccccc1Cl	cell number change		33.3%
same	AC50	[2]	29.1 µM [rising, single point]
O=C(NC1=NCCS1)c1ccc(N2CCCC2=O)cc1	cell number change		-44.9%
same	AC50	[2]	0.82 µM [falling, full curve]
CCC(=O)Nc1ccc(C(=O)CSc2nc3ccccc3[nH]2)cc1	cell number change		-26.2%
same	AC50	[2]	0.206 µM [falling, full curve]
CCOC(=O)C(=O)Nc1cc(Cl)ccc1C	cell number change		-50%
same	AC50	[2]	29.1 µM [falling, single point]
CC(NC(=O)CNC(=O)c1ccco1)c1ccc(S(N)(=O)=O)cc1 (stereo not drawn)	cell number change		-21.9%
CCOC(=O)c1c(S(=O)(=O)NC2CCN(C(=O)OCC)CC2)c(C)n(C)c1C	cell number change		10.6%
same	AC50	[1]	10.3 µM [rising, partial curve, poor fit]
Cc1cc(C(F)(F)F)nn1C(=O)c1cccnc1Cl	cell number change		-7.05%
same	AC50	[1]	16.4 µM [falling, partial curve]
CCOc1ccc(-c2c(C(=O)N/N=C(\C)c3ccncc3)nnn2-c2nonc2N)cc1	cell number change		2.99%
Nc1nc(SCc2ccc3c(c2)OCO3)n[nH]1	cell number change		68.9%
same	AC50	[2]	23.1 µM [rising, partial curve]
same	AC50	[1]	0.326 µM [rising, full curve]
C=CCOc1cccc(C2c3c(oc4ccc(F)cc4c3=O)C(=O)N2CCCN2CCOCC2)c1 (stereo not drawn)	cell number change		-1.04%
same	AC50	[1]	0.13 µM [falling, full curve, poor fit]
